From patent US8735167B2, “Photoinduced signal amplification through externally sensitized photofragmentation in masked photosensitizers and photoamplified fluorescence turn-off system” (Colorado Seminary, which owns and operates The University …, priority 2007, dated 2014) come the findings set out here.

This data set in a line: Photoamplified fluorescence quenching of p-terphenyl (turn-off assay).

`O=C(c1ccccc1)c1ccccc1` [benzophenone]: the “fluorescence quenching of p-terphenyl, control without photoamplification” value (4% N-n-octadecylurea organogel in t-BuPh, p-terphenyl 2×10^−5M, BP 10^−6M) is on record as “no significant fluorescence quenching without photoamplification”; the “fluorescence quenching of p-terphenyl, control without photoamplification” value (CH2Cl2, p-terphenyl 2×10^−5 M, BP 10^−4 M, no adduct) is reported as “no quenching without photoamplification”; the “fluorescence quenching of p-terphenyl, control without photoamplification” value (t-BuPh, p-terphenyl 2×10^−5 M, BP 10^−4 M, no adduct) is recorded as “no quenching without photoamplification”.
